From doi:10.1101/2024.09.20.614077
Like-named read-outs stand apart in the source and are kept apart here. Results are given in words; binding and its absence hold for the method and conditions named. Binding seen in cells or lysates may run through a third protein. Some binding calls cover weakened binding; strength is not graded here. For some of these results: Sequences can lack the tags named with a protein. Values belong to the molecule of their own block, whether it stands above or below them.

Amino acid sequences for entries named in this document (tags omitted).
UniProt A2A9A2: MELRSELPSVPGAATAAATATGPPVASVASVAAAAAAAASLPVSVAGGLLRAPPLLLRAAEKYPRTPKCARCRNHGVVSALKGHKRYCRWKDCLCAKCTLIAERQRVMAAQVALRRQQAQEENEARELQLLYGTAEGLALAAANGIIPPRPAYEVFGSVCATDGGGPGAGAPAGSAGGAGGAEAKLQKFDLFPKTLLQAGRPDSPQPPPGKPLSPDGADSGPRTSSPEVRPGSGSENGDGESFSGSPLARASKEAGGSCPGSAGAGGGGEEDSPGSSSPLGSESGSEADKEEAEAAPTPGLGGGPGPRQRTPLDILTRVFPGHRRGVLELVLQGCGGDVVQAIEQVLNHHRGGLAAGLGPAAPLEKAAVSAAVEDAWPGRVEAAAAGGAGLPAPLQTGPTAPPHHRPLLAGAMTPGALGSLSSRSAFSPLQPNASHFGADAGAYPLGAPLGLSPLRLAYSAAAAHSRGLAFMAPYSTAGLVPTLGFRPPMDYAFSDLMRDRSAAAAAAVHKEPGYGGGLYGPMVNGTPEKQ
UniProt Q13547: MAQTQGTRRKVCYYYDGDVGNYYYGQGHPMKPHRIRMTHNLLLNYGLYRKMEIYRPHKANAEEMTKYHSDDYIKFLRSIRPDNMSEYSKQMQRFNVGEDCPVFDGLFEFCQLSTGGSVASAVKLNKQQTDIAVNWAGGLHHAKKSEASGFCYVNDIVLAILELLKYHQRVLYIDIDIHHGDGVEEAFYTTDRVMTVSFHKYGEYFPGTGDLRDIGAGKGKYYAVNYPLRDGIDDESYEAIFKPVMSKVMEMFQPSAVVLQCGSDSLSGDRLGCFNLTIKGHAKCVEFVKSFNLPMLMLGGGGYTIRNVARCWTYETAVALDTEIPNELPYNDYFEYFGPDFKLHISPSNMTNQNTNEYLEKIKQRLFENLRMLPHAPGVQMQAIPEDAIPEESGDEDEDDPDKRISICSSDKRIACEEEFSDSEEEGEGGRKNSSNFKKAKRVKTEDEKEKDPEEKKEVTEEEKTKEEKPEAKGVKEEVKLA
UniProt Q92769: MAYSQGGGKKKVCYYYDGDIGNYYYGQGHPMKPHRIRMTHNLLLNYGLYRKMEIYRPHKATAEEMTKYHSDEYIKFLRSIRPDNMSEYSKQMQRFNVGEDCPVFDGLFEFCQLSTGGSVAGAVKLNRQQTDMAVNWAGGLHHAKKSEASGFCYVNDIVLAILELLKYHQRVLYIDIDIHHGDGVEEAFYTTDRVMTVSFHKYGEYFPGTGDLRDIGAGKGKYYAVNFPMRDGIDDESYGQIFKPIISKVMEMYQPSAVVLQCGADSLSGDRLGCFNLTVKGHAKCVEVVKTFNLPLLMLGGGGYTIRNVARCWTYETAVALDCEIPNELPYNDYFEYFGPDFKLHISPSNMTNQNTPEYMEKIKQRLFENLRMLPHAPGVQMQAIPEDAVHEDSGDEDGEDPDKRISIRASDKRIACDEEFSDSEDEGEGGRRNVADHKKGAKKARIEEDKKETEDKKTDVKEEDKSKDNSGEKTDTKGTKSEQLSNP

Tests used:
Assay in all cases: co-IP
[1] = target: T1, Zfp423 (pCDNA3-Myc-Zfp423) (UniProt Q80TS5)
T1 sequence: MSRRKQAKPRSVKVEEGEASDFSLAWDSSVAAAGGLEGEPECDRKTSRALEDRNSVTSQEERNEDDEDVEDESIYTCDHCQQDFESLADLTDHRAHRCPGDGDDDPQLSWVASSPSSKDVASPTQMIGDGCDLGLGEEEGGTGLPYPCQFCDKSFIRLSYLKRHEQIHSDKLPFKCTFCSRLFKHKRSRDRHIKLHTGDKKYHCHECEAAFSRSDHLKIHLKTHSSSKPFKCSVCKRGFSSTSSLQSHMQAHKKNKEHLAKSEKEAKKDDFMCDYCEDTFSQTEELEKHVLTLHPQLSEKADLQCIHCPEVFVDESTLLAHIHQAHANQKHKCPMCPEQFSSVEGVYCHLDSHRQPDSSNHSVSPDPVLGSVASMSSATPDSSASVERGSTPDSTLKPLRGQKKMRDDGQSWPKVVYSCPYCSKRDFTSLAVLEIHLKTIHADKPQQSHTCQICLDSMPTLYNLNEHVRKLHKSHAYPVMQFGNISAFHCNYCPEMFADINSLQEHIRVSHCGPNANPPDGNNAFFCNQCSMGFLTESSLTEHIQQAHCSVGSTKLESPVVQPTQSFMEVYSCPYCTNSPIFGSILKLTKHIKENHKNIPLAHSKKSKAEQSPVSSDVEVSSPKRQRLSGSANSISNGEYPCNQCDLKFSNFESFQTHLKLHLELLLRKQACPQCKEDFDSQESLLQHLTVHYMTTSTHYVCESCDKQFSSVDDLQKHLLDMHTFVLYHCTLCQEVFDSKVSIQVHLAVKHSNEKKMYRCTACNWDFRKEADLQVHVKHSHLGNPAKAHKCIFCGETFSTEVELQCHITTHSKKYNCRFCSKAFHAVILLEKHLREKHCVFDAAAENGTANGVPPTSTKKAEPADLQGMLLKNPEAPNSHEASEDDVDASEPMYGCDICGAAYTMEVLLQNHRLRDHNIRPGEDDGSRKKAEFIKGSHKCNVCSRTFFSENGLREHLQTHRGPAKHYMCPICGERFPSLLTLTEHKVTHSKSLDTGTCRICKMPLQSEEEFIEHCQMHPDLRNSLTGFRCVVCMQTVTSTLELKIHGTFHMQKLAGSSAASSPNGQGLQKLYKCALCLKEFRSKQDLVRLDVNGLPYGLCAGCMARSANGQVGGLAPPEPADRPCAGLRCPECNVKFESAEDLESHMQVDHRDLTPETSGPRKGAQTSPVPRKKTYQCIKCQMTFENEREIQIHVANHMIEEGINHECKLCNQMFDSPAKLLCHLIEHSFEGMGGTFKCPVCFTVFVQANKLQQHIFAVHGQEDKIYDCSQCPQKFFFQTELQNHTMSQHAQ

[2] = target: Flag-Dmrta2 (pCS2-Flag-mDmrta2) (mouse) (UniProt A2A9A2)
[3] = target: Flag-Dmrta2 (pCS2-Flag-mDmrta2) (mouse) (UniProt A2A9A2); remark: listed apart in the source

binding [1]: binds
Molecule: Flag-Dmrta2 (pCS2-Flag-mDmrta2) (from UniProt A2A9A2 1-531)

binding [2]: binds
Molecule: HDAC1 (HEK293T) (from UniProt Q13547 1-482)

binding [2]: binds
Molecule: HDAC2 (HEK293T) (from UniProt Q92769 1-488)

binding [3]: binds
B1: Zfp423 (pCDNA3-Myc-Zfp423) (protein, UniProt Q80TS5 1-1292)
chain: T1 sequence
